Data source: PubChem BioAssay AID504774 (Drosophila RNAi Screening Center, 2011)
The screen tested about 23,000 reagents; below is an unselected part of those that have a named target and a result. 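Values are quantile-normalised luminescence on an arbitrary scale; higher means more cells surviving MMS.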

Purpose: 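Knock-downs that shift viability of MMS-exposed cells relative to untreated ones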 (primary screen)
Cells: Drosophila Kc167 cells
Knock-down reagent: long dsRNA against Drosophila genes, about 0.25 µg dsRNA per well
Duration: about 6 days: 3 days knock-down, then 3 days with or without MMS
Treatment: methyl methanesulphonate 0.004% (w/v) for 3 days after knock-down
Read-out: 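ATP-dependent luminescence as a measure of live cells in MMS-exposed wells, quantile normalised within each plate, with replicate values also given as a mean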
Reading the numbers: mean viability with MMS and viability with MMS: higher = more surviving cells after MMS

| Target gene | PubChem SID | mean viability with MMS | viability with MMS, replicate 1 | viability with MMS, replicate 2 |
| --- | --- | --- | --- | --- |
| CG14321 | SID104194592 | 3.62e6 | 4.16e6 | 4.04e6 |
| CG13998 | SID104182122 | 3.40e6 | 3.81e6 | 3.85e6 |
| CG7606 | SID104193038 | 3.68e6 | 4.20e6 | 4.09e6 |
| CG7606 | SID104196060 | 3.32e6 | 3.70e6 | 3.81e6 |
| CG12360 (retired record) | SID104194297 | 3.58e6 | 4.01e6 | 4.13e6 |
| Polr2L | SID104194422 | 3.33e6 | 3.78e6 | 3.69e6 |
| CG34269 | SID104187676 | 3.54e6 | 4.03e6 | 4.01e6 |
| CR16735 | SID104194936 | 3.40e6 | 3.70e6 | 4.04e6 |
| CG13502 | SID104183939 | 3.51e6 | 4.03e6 | 3.92e6 |
| lz | SID104198582 | 3.73e6 | 4.17e6 | 4.25e6 |
| lz | SID104201811 | 3.45e6 | 3.98e6 | 3.88e6 |
| CG13473 | SID104189809 | 3.69e6 | 4.20e6 | 4.11e6 |
| Pask | SID104184129 | 3.50e6 | 4.07e6 | 3.95e6 |
| Rbfox1 | SID104188826 | 3.65e6 | 4.09e6 | 4.13e6 |
| Rbfox1 | SID104189949 | 3.48e6 | 3.46e6 | 3.45e6 |
| Rbfox1 | SID104190112 | 3.17e6 | 3.61e6 | 3.51e6 |
| Rbfox1 | SID104201146 | 3.58e6 | 4.04e6 | 4.09e6 |
| Rbfox1 | SID104202349 | 3.58e6 | 3.96e6 | 4.17e6 |
| CG31550 | SID104191989 | 3.56e6 | 3.98e6 | 4.09e6 |
| CG31550 | SID104191990 | 3.48e6 | 3.95e6 | 3.91e6 |
| Grip163 | SID104190330 | 3.59e6 | 4.06e6 | 4.05e6 |
| Gr59e | SID104184068 | 3.54e6 | 3.89e6 | 4.15e6 |
| ND-15 | SID104180103 | 3.39e6 | 3.80e6 | 3.75e6 |
| Gr39a | SID104181633 | 3.40e6 | 3.95e6 | 3.79e6 |
| Gr39a | SID104181634 | 3.56e6 | 4.05e6 | 4.02e6 |
| CG13858 (retired record) | SID104194500 | 3.65e6 | 4.18e6 | 4.09e6 |
| CG13858 (retired record) | SID104194501 | 3.51e6 | 4.00e6 | 3.96e6 |
| CG13858 (retired record) | SID104194502 | 3.50e6 | 4.00e6 | 3.94e6 |
| CG13858 (retired record) | SID104194503 | 3.58e6 | 4.13e6 | 3.98e6 |
| CG4041 | SID104198131 | 3.47e6 | 3.94e6 | 3.95e6 |
| cmet | SID104183303 | 3.53e6 | 3.94e6 | 4.07e6 |
| clt | SID104184413 | 3.64e6 | 4.08e6 | 4.18e6 |
| CG14937 | SID104182211 | 3.31e6 | 3.70e6 | 3.72e6 |
| Brd8 | SID104194658 | 3.89e6 | 4.56e6 | 4.37e6 |
| CG11807 | SID104185879 | 3.61e6 | 4.20e6 | 4.00e6 |
| Golgin97 | SID104186687 | 3.46e6 | 3.91e6 | 3.89e6 |
| sv | SID104197013 | 3.57e6 | 4.16e6 | 3.94e6 |
| ham | SID104181862 | 3.52e6 | 3.94e6 | 4.03e6 |
| ham | SID104182304 | 3.80e6 | 4.14e6 | 4.10e6 |
| ham | SID104182305 | 3.79e6 | 4.27e6 | 4.23e6 |
| Remo | SID104199502 | 3.65e6 | 4.17e6 | 4.07e6 |
| CG15143 | SID104182236 | 3.43e6 | 3.84e6 | 3.96e6 |
| Claspin | SID104188100 | 1.53e6 | 3.61e6 | – |
| btz | SID104194358 | 3.33e6 | 3.76e6 | 3.83e6 |
| CG32846 | SID104187804 | 3.55e6 | 4.10e6 | 3.95e6 |
| COX6AL | SID104201195 | 3.36e6 | 3.86e6 | 3.90e6 |
